Laboratory results: PubChem BioAssay AID587 (National Center for Advancing Translational Sciences (NCATS), 2007)
Screen size: about 59,000 compounds; about 35 (0.06%) were called active. Inconclusive means that the source gave no clear call. Such entries were picked first, then a sample of the others. No stated cut-off is given here; in the data, active means max dye-equivalent concentration above about 10 nM; inconclusive means between about 1.1 nM and that limit; inactive means weaker than that.

Assay: qHTS Assay for Spectroscopic Profiling in Texas Red Spectral Region
Conditions: Compound fluorescence, Texas Red channel, 547/618 nm; active compounds read high
Outline: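 Compound fluorescence was read after 15 min at room temperature in 100 mM Tris, pH 8.0, using 547 nm excitation and 618 nm emission across a concentration series. It was expressed as Texas Red dye-equivalent concentration from an on-plate standard curve.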

SMILES | max dye-equivalent concentration | outcome
CCNC(=O)c1ccc(NS(=O)(=O)c2ccccc2)cc1 | inconclusive: 1.2 nM | 
O=C(O)Cn1c(CC(=O)N2CCCC2)nc2ccccc21 | inconclusive: 1.1 nM | 
COc1ccccc1-c1cncnc1NCCc1cnc[nH]1 | inconclusive: 1.5 nM | 
O=[N+]([O-])c1ccc(S(=O)(=O)Cc2ccccc2)c2nonc12 | inactive | 
CCC(C)c1ccccc1NC(=O)c1cccnc1 (stereo not drawn) | inconclusive: 1.8 nM | 
COc1ccc(CN2C(=O)CN=C2Nc2cc(C)ccc2C)cc1 | inconclusive: 1.9 nM | 
O=C(NCc1ccc(N2CCCC2=O)cc1)c1cnccn1 | inconclusive: 1.3 nM | 
COc1ccc(OC)c(CNC(=O)C2CCCN(c3nc4ccccc4o3)C2)c1 (stereo not drawn) | inconclusive: 1.2 nM | 
CCN(CC(=O)NCc1ccc(F)cc1)CC(O)COCc1cccc(OC)c1 (stereo not drawn) | inconclusive: 1.1 nM | 
Cc1cccc(NC(=O)c2cc(NC(=O)c3ccco3)ccc2Cl)n1 | inconclusive: 1.9 nM | 
CCOC(=O)N1CCN(c2cc(=O)n(Cc3ccc(F)cc3)c(=O)[nH]2)CC1 | inconclusive: 1.2 nM | 
Cn1c(=O)cc(SCC(=O)Nc2ccccn2)c2ccccc21 | inactive | 
O=c1cc(CF)[nH]c(=S)[nH]1 | inactive | 
Cc1nn(-c2ccccc2)c(C)c1NS(=O)(=O)c1ccccc1 | inconclusive: 1.4 nM | 
COc1ccc2cc(CN(Cc3cccnc3)S(=O)(=O)c3ccccc3)c(=O)[nH]c2c1 | inconclusive: 1.6 nM | 
Cc1cc2oc(=O)cc(CN3CCCCC3C)c2c(C)c1Cl (stereo not drawn) | inconclusive: 1.8 nM | 
COc1ccc(-c2nnc(SCC(=O)Nc3ncc(C)s3)n2-c2ccccc2)cc1OC | inconclusive: 1.3 nM | 
CC1Cc2ccccc2N1CC(=O)NC(=O)NCc1ccco1 (stereo not drawn) | inconclusive: 1.7 nM | 
COc1ccc(CC(=O)N2CCN(c3ccccn3)CC2)cc1 | inconclusive: 1.1 nM | 
O=C(CSCc1cnn(-c2ccccc2)c1-n1cccc1)NCc1ccc2c(c1)OCO2 | inconclusive: 1.5 nM | 
CS(=O)(=O)N(CC(=O)N1CCN(Cc2ccccc2)CC1)Cc1ccccc1 | inconclusive: 2.4 nM | 
CCOC(=O)CCSc1nc(C)cc(C(F)(F)F)c1C#N | inactive | 

SMILES | max dye-equivalent concentration | outcome
O=C(Cn1ncc2c(=O)oc3ccccc3c21)N1CCCc2ccccc21 | inconclusive: 2.6 nM | 
CCC(=O)O[C@@H]1[C@H](C)O[C@H](O[C@H]2[C@@H](N(C)C)[C@H](O)[C@@H](O[C@@H]3[C@@H](CC=O)C[C@@H](C)[C@@H](O)/C=C\C=C/C[C@@H](C)OC(=O)C[C@@H](OC(=O)CC)[C@H]3OC)O[C@H]2C)C[C@]1(C)O | inactive | 
Cn1c(N2CCCC2)nc2c1c(=O)n(Cc1cccc(F)c1)c(=O)n2C | inconclusive: 1.5 nM | 
O=C(c1cccc(Cl)c1)N(Cc1cccs1)C1CCS(=O)(=O)C1 (stereo not drawn) | inconclusive: 1.2 nM | 
CC1=CC(=O)CC(C)(C)[C@@]1(O)/C=C\C(C)=C\C(=O)O | inactive | 
CCOC(=O)Cc1csc(NC(=O)CCNS(=O)(=O)c2ccc3c(c2)CCC(=O)N3)n1 | inconclusive: 1.2 nM | 
CCCn1c(NCc2ccc(C)o2)nc2ccccc21 | inconclusive: 1.4 nM | 
CC(C)NC(=O)NC(=O)COC(=O)Cc1ccsc1 | inconclusive: 1.2 nM | 
O=C(COC(=O)c1ccco1)NCc1ccco1 | inconclusive: 1.3 nM | 
N[C@@H]1CONC1=O | inconclusive: 1.4 nM | 
CCn1c(=O)cc(OCC(=O)NC2CCCCC2)c2ccccc21 | inconclusive: 1.2 nM | 
Cn1nc(-c2ccc(N3CCOCC3)c(NC(=O)COc3ccccc3)c2)c2ccccc2c1=O | inconclusive: 1.8 nM | 
COc1ccccc1-c1ccc(Nc2cccc(C(C)=O)c2)nn1 | inconclusive: 1.4 nM | 
COc1ccc2sc(NC(C)=O)nc2c1 | inconclusive: 2.2 nM | 
CCNc1nc(NCC)n2c(SCc3ccc(F)cc3)nnc2n1 | inconclusive: 3.1 nM | 
COc1cccc(-c2nnc(SCC(=O)OC(C)C)n2Cc2ccco2)c1 | inconclusive: 2 nM | 
Clc1ccccc1CSc1nnc(-c2cccnc2)n1Cc1ccco1 | inconclusive: 1.1 nM | 
N=C(N)SC(c1ccccc1)c1ccccc1 | inconclusive: 1.3 nM | 
COc1ccc(-c2nc3cnc(OC)nc3n(C)c2=O)cc1 | inactive | 
COc1ccc(NC(=O)c2ccco2)c(NC(=O)Cc2cccs2)c1 | inconclusive: 2 nM | 
O=C(O)CCc1c2ccc(=O)c(O)c-2oc2c(O)c(O)ccc12 | inactive | 
CCC(=O)Nc1cc(C)c(NC(=O)c2ccccc2OC)cn1 | inconclusive: 1.5 nM | 

26 neighbouring compounds out of the list so far, for reference:
SMILES | max dye-equivalent concentration | outcome
Cc1cc2oc(=O)cc(CN3CCCCC3C)c2c(C)c1Cl (stereo not drawn) | inconclusive: 1.8 nM | 
COc1ccc(-c2nnc(SCC(=O)Nc3ncc(C)s3)n2-c2ccccc2)cc1OC | inconclusive: 1.3 nM | 
CC1Cc2ccccc2N1CC(=O)NC(=O)NCc1ccco1 (stereo not drawn) | inconclusive: 1.7 nM | 
COc1ccc(CC(=O)N2CCN(c3ccccn3)CC2)cc1 | inconclusive: 1.1 nM | 
O=C(CSCc1cnn(-c2ccccc2)c1-n1cccc1)NCc1ccc2c(c1)OCO2 | inconclusive: 1.5 nM | 
CS(=O)(=O)N(CC(=O)N1CCN(Cc2ccccc2)CC1)Cc1ccccc1 | inconclusive: 2.4 nM | 
CCOC(=O)CCSc1nc(C)cc(C(F)(F)F)c1C#N | inactive | 
O=C(Cn1ncc2c(=O)oc3ccccc3c21)N1CCCc2ccccc21 | inconclusive: 2.6 nM | 
CCC(=O)O[C@@H]1[C@H](C)O[C@H](O[C@H]2[C@@H](N(C)C)[C@H](O)[C@@H](O[C@@H]3[C@@H](CC=O)C[C@@H](C)[C@@H](O)/C=C\C=C/C[C@@H](C)OC(=O)C[C@@H](OC(=O)CC)[C@H]3OC)O[C@H]2C)C[C@]1(C)O | inactive | 
Cn1c(N2CCCC2)nc2c1c(=O)n(Cc1cccc(F)c1)c(=O)n2C | inconclusive: 1.5 nM | 
O=C(c1cccc(Cl)c1)N(Cc1cccs1)C1CCS(=O)(=O)C1 (stereo not drawn) | inconclusive: 1.2 nM | 
CC1=CC(=O)CC(C)(C)[C@@]1(O)/C=C\C(C)=C\C(=O)O | inactive | 
CCOC(=O)Cc1csc(NC(=O)CCNS(=O)(=O)c2ccc3c(c2)CCC(=O)N3)n1 | inconclusive: 1.2 nM | 
CCCn1c(NCc2ccc(C)o2)nc2ccccc21 | inconclusive: 1.4 nM | 
CC(C)NC(=O)NC(=O)COC(=O)Cc1ccsc1 | inconclusive: 1.2 nM | 
O=C(COC(=O)c1ccco1)NCc1ccco1 | inconclusive: 1.3 nM | 
N[C@@H]1CONC1=O | inconclusive: 1.4 nM | 
CCn1c(=O)cc(OCC(=O)NC2CCCCC2)c2ccccc21 | inconclusive: 1.2 nM | 
Cn1nc(-c2ccc(N3CCOCC3)c(NC(=O)COc3ccccc3)c2)c2ccccc2c1=O | inconclusive: 1.8 nM | 
COc1ccccc1-c1ccc(Nc2cccc(C(C)=O)c2)nn1 | inconclusive: 1.4 nM | 
COc1ccc2sc(NC(C)=O)nc2c1 | inconclusive: 2.2 nM | 
CCNc1nc(NCC)n2c(SCc3ccc(F)cc3)nnc2n1 | inconclusive: 3.1 nM | 
COc1cccc(-c2nnc(SCC(=O)OC(C)C)n2Cc2ccco2)c1 | inconclusive: 2 nM | 
Clc1ccccc1CSc1nnc(-c2cccnc2)n1Cc1ccco1 | inconclusive: 1.1 nM | 
N=C(N)SC(c1ccccc1)c1ccccc1 | inconclusive: 1.3 nM | 
COc1ccc(-c2nc3cnc(OC)nc3n(C)c2=O)cc1 | inactive | 

(further entries)

SMILES | max dye-equivalent concentration | outcome
COc1ccccc1-c1noc(-c2cccnc2)n1 | inconclusive: 1.2 nM | 
O=C(c1ccco1)N1CCN(C(c2ccccc2F)c2nnnn2Cc2cccs2)CC1 (stereo not drawn) | inconclusive: 1.8 nM | 
COc1ccc(NC(=O)N2CC[C@@]3(CCCN(C(=O)c4cccc(F)c4)C3)C2)cc1 | inactive | 
CC[C@]1(C)CC(=O)NC1=O | inconclusive: 1.6 nM | inactive
CCC(C)(C)NC(=O)C(c1cccnc1)N(CCOC)C(=O)Cn1nnc2ccccc21 (stereo not drawn) | inconclusive: 1.2 nM | 
CC(=O)NCCn1c(SCC(=O)NCc2ccco2)nc2ccccc2c1=O | inconclusive: 2.2 nM | 
Cc1cccc(OCC(=O)N(Cc2cccs2)C2CCS(=O)(=O)C2)c1C (stereo not drawn) | inconclusive: 1.2 nM | 
Cc1c(NC(=O)c2cccc(S(=O)(=O)N3CCOCC3)c2)c(=O)n(-c2ccccc2)n1C | inconclusive: 2 nM | 
CCCN1C(=O)C(NS(=O)(=O)c2ccc(N)cc2)(C(F)(F)F)C(C(=O)OC)=C1C (stereo not drawn) | inconclusive: 1.1 nM | 
O=C(O)c1cccc(OCCO)c1 | inactive | 
O=C(c1csnn1)N1CCC2(CCCN(C(c3ccccc3)c3ccccc3)C2)CC1 | inactive | 
CC(C)N=c1cc2n(-c3ccc(Cl)cc3)c3ccccc3nc-2cc1Nc1ccc(Cl)cc1 | inconclusive: 1.9 nM | 
Cc1ccc2nc(NCc3ccccc3)[nH]c2c1 | inconclusive: 1.1 nM | 
Cn1c(=O)c(-c2ccccc2)nc2cnc(OCc3ccccc3)nc21 | inactive | 
COc1cccc(NC(=O)CN2CCN(c3ccccc3F)CC2)c1 | inconclusive: 1.1 nM | 
COc1cccc(C(=O)NC2CCN(C(=O)N3CCCCC3)CC2)c1 | inconclusive: 1.1 nM | 
C1CN(c2nc3nonc3n3nnnc23)CCO1 | inconclusive: 1.1 nM | 
Cc1cc(Br)ccc1NC(=O)CNC(=O)CSc1n[nH]c(N)n1 | inconclusive: 1.2 nM | 
Cc1ccc(NC(C(N)=O)c2c(C)[nH]c(=O)[nH]c2=O)cc1 (stereo not drawn) | inconclusive: 1.2 nM | 
Cc1ccc(CNC(=O)CCNC(=O)Cn2ccc3ccccc3c2=O)o1 | inconclusive: 1.2 nM | 
Cc1nn(Cc2ccccc2)c(C)c1NC(=O)c1cc(-c2ccco2)on1 | inconclusive: 1.2 nM | 
O=C(O)c1cc(-c2ccco2)[nH]n1 | inconclusive: 1.5 nM | 

SMILES | max dye-equivalent concentration | outcome
COC(=O)CSc1nc(N2CCCCC2)c2c(c1C#N)CCCC2 | inconclusive: 1.4 nM | 
COc1ccc2c(C)cc(SCC(=O)N3CCOCC3)nc2c1 | inactive | 
CCOC(=O)CCCNC(=O)CN1C(=O)NC(CCc2ccccc2)C1=O (stereo not drawn) | inconclusive: 1.2 nM | 
O=C(OCc1nnc(-c2ccccc2)o1)c1cn(-c2ccccc2)nc1-c1ccccc1 | inconclusive: 1.2 nM | 
CCn1c(SCC(=O)NCc2ccco2)nnc1C(C)C | inconclusive: 1.6 nM | 
O=S(=O)(O)c1cc(O)c2c(N=Cc3ccccc3O)cc(S(=O)(=O)O)cc2c1 | inconclusive: 2.6 nM | 
CC(c1ccccc1)C1NC(C(=O)O)CS1 (stereo not drawn) | inconclusive: 1.3 nM | 
C=CCn1c(C(C)NC(=O)CCC)nc2ccccc21 (stereo not drawn) | inconclusive: 1.1 nM | 
CCc1cccc2c(C#N)cn(CC(=O)NCCOC)c12 | inconclusive: 1.1 nM | 
O=C(CSc1nnc(-c2cccs2)o1)N1CCCc2ccccc21 | inconclusive: 3.1 nM | 
Cn1c(CCNC(=O)c2ccco2)nc2cc(NS(=O)(=O)c3ccccc3)ccc21 | inconclusive: 1.6 nM | 
CCOc1cc(NC(=O)C2CCCCC2)c(OCC)cc1NC(=O)c1ccco1 | inconclusive: 1.2 nM | 
CC(C)CCNC(=O)NC(=O)CSc1nnc(-c2ccccc2Br)o1 | inconclusive: 1.4 nM | 
O=C(CSc1ncc(-c2ccccc2)n1CC1CCCO1)N1CCCCC1 (stereo not drawn) | inconclusive: 2.6 nM | 
CCCCn1c(SCC(=O)c2ccc3c(c2)OCCO3)nnc1-c1ccoc1C | inconclusive: 1.1 nM | 
N/N=C1/CC(=O)NC(=O)N1 | inconclusive: 1.9 nM | 
CCNC(=O)C1CC(=O)N(Cc2ccc3c(c2)OCO3)C(=Nc2ccc(F)cc2)S1 (stereo not drawn) | inconclusive: 1.4 nM | 
CCOC(=O)N1CCC(Nc2c(NCCCN3CCN(c4ccc(OC)cc4)CC3)c(=O)c2=O)CC1 | inactive | 
CCCCn1c(SCC(=O)N2CC(=O)Nc3ccccc32)nnc1-c1ccoc1C | inconclusive: 1.3 nM | 
Cc1ccc(CCNC(=O)CCNS(=O)(=O)c2ccc3c(c2)c(=O)n(C)c(=O)n3C)cc1 | inconclusive: 2.1 nM | 
COc1ccccc1NC(=O)Cn1cnc2c(cnn2-c2ccccc2)c1=O | inconclusive: 1.6 nM | 
